# No constants are given. Whether binding was seen depends on the method and setting. In cells and extracts the contact can be indirect. Here binding means that the protein was enriched with, or labelled near, the bait; the list need not be complete.
# By UniProt entry, the sequences of proteins in these tests, tags left out.
# UniProt Q9UKA4: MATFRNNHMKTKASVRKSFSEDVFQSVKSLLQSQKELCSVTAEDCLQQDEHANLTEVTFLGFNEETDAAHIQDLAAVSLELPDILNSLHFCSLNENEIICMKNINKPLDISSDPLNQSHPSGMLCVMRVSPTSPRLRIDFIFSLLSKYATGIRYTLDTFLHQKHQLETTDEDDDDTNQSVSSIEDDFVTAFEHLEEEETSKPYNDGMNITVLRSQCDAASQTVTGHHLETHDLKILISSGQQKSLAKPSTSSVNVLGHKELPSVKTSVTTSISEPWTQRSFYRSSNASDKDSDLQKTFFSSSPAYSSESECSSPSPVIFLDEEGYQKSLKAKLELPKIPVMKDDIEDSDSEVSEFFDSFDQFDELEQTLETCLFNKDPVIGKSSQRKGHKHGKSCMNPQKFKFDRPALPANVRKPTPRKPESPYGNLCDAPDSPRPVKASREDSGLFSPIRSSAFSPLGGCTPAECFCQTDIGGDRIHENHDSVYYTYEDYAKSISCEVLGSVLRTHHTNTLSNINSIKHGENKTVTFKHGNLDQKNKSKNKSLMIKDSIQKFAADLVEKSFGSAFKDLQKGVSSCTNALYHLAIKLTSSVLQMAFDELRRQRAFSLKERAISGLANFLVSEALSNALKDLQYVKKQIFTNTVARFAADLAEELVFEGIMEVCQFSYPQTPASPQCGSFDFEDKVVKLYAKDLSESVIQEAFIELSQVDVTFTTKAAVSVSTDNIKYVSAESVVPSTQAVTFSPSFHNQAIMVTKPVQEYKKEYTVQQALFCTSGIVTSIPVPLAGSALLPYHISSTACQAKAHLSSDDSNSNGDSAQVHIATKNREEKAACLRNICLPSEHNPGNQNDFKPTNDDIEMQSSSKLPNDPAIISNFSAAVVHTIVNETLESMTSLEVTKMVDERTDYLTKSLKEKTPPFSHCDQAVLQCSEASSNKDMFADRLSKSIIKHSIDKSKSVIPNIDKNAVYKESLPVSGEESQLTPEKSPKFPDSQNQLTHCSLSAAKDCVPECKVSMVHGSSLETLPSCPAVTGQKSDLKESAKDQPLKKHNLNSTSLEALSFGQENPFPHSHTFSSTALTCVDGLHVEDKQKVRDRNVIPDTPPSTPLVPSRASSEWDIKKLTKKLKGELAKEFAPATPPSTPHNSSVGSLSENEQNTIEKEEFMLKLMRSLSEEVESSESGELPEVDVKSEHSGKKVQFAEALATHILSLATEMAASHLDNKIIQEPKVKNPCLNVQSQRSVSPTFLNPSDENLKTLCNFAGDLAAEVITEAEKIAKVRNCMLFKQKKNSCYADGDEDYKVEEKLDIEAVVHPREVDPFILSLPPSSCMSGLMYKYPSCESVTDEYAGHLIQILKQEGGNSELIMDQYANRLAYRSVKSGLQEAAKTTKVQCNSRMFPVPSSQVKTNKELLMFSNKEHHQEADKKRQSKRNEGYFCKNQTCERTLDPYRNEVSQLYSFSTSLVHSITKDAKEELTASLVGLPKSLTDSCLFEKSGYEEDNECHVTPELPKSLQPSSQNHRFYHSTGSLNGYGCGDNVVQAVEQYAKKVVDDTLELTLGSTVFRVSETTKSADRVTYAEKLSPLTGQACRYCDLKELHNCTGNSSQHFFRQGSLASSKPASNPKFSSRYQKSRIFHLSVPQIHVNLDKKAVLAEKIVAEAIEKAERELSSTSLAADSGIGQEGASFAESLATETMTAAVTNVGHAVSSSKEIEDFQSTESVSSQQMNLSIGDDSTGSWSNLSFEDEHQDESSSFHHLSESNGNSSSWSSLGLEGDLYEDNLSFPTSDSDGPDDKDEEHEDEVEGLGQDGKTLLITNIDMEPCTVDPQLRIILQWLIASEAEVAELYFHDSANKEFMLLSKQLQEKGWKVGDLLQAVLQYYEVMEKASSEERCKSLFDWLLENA
# UniProt P12849: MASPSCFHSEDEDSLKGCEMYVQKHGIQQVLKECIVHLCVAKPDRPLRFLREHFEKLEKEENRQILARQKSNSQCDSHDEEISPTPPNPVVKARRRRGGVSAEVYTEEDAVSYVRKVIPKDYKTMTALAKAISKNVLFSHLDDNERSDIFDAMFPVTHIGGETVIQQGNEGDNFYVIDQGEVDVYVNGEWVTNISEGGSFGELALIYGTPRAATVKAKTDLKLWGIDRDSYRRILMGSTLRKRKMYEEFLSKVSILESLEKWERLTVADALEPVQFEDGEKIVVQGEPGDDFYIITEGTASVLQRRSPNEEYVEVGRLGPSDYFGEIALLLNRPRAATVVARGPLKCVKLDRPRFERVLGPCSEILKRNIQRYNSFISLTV
# UniProt Q6NSW3: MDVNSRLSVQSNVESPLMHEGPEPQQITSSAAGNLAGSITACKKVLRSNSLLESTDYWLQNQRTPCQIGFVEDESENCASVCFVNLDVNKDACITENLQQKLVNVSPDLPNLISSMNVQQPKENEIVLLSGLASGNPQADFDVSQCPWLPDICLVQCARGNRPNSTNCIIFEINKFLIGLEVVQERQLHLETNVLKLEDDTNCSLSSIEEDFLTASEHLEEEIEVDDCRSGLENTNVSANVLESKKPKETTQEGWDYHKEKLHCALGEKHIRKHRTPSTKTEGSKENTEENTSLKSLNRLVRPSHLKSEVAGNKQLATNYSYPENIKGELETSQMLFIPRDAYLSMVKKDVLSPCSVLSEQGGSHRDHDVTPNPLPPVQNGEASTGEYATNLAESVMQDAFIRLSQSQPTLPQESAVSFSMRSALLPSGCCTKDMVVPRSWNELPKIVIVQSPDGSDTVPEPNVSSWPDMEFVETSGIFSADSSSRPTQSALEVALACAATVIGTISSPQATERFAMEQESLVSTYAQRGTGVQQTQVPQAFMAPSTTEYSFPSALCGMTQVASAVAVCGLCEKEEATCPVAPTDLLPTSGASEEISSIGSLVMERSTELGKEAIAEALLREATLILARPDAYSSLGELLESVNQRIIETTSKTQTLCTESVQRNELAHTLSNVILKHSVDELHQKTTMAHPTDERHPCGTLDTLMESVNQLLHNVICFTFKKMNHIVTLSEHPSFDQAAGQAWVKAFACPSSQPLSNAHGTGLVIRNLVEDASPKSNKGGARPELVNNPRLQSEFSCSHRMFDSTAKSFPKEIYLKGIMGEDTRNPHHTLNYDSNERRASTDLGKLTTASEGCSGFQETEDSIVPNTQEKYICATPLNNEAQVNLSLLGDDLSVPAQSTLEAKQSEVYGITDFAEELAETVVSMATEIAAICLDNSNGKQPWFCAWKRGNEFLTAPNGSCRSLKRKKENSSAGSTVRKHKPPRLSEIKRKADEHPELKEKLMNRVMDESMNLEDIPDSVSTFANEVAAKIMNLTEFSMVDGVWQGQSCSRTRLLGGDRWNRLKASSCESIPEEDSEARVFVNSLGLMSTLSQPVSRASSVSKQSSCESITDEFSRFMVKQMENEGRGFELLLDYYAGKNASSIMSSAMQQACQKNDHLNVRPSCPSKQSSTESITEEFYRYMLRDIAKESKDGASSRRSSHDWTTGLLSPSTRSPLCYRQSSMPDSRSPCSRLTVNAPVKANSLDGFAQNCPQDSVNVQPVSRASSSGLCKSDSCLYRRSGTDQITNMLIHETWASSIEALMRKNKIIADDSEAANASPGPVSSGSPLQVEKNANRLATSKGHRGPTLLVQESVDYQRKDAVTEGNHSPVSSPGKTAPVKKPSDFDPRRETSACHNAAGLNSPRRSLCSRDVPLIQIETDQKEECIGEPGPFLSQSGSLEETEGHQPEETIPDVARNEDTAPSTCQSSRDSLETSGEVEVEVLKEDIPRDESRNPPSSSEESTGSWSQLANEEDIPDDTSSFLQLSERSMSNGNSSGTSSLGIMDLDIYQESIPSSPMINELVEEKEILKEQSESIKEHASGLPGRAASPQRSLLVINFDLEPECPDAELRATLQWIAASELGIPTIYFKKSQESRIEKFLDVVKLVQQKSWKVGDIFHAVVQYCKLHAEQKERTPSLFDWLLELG
# UniProt Q9DBC7: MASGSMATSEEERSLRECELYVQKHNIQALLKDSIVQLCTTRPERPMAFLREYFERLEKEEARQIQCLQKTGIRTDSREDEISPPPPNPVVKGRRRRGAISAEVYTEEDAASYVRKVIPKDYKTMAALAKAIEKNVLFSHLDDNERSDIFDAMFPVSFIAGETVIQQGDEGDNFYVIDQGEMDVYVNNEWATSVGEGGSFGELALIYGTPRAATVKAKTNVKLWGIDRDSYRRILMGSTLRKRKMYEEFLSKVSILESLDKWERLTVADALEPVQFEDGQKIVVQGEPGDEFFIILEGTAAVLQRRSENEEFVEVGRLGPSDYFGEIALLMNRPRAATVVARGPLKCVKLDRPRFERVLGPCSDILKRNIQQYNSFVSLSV
# B1: VAPA (protein, UniProt Q9WV55 1-249)
# chain: MASASGAMAKHEQILVLDPPSDLKFKGPFTDVVTTNLKLQNPSDRKVCFKVKTTAPRRYCVRPNSGIIDPGSIVTVSVMLQPFDYDPNEKSKHKFMVQTIFAPPNISDMEAVWKEAKPDELMDSKLRCVFEMPNENDKLNDMEPSKAVPLNASKQDGPLPKPHSVSLNDTETRKLMEECKRLQGEMMKLSEENRHLRDEGLRLRKVAHSDKPGSTSAVSFRDNVTSPLPSLLVVIAAIFIGFFLGKFIL
# Molecular target: AKAP11-eGFP fusion protein (UniProt Q9UKA4)
# Experiment: affinity purification with mass spectrometry; anti-GFP affinity purification of AKAP11-eGFP from AKAP11-eGFP; Syn-cre mouse brain lysate against control; co-purified proteins by DIA mass spectrometry
row,Molecule,binding
1,PKA regulatory subunit RIβ (from UniProt P12849 1-381),binds
2,DYRK1A (from UniProt Q61214 1-763),binds
3,SPHKAP (from UniProt Q6NSW3 1-1687),binds
4,PKA regulatory subunit RIα (from UniProt Q9DBC7 1-381),binds
5,B1,binds

# — article PMC11952666
